# Data reported in patent publication US20240066087A1, “SUTHERLANDIA EXTRACT AND THE USE THEREOF IN THE MANUFACTURE OF A MEDICAMENT” (ACUPHARM INTERNATIONAL PROPRIETARY LIMITED, priority 2020, published 2024).
# At least one structure is not confirmed: it was looked up by name or label, or the drawing left a doubt. Some entries repeat one wording, which the source may state once for all of them.
# System: cultured tissue from needle biopsy, Breast DCIS papillary neoplasm
# Experiment: dose response study with cumulative cell death on cultured patient biopsy tissue (patient 19055)
# Format: cell-based, human
# Details: in vitro cultured biopsy sample, patient 19055, Breast DCIS papillary neoplasm
# Experimental: Comparative studies were performed using Sutherlandia leaf extract in water (referred to as ACPJL35), Sutherlandia leaf extract in 50% ethanol and water solution (referred to as ACPJL28), and Sutherlandia leaf extract in 90% ethanol and water solution (referred to as ACPJL07). These extracts were compared to a number of known botanical isolates with anti-cancer activity, as well as a number of known anti-cancer drugs, using a dose response design with cumulative cell death as the dependent variable. These studies were conducted on in vitro samples of cultured tissue, taken as biopsy samples from patients as part of a standard culture and testing process done in order to optimise treatment.
# Patient from whom sample was obtained was a person presenting with a diagnosis of Breast DCIS papillary neoplasm. The sample was obtained via needle biopsy, before being cultured.
row,SMILES,"efficacy assessment from dose response (dose-CR curve), cumulative cell death as dependent variable"
1,CNC(=O)c1ccccc1Sc1ccc2c(/C=C/c3ccccn3)n[nH]c2c1 [Axitinib],having potential benefit
2,Cc1nc(Nc2ncc(C(=O)Nc3c(C)cccc3Cl)s2)cc(N2CCN(CCO)CC2)n1 [Dasatinib],having potential benefit
